Patent US20100184088A1 (ONCOTHERAPY SCIENCE, published 2010)
Results are given in words; binding and its absence hold for the method and conditions named. In cells and extracts the contact can be indirect. Some entries that bind do so weakly or less than the wild type. For some of these results: Where a sequence is shown, tags or fusion partners need not be part of it. Each block holds one binder with its values, some of them ahead of it.

Key:
[1] = molecular target: T1, Flag-tagged VEGFR1#1 (codons 800-1000) (human) (UniProt P17948); assay: co-immunoprecipitation in HEK293 cells (IP anti-HA / blot anti-Flag, and IP anti-Flag / blot anti-HA)
T1 sequence: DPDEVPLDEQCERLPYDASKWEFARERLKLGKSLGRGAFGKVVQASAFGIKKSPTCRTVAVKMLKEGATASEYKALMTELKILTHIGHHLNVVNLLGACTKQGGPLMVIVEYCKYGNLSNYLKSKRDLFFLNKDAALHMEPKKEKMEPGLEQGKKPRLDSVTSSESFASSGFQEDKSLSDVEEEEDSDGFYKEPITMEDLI

[2] = molecular target: endogenous VEGFR1 (human) (UniProt P17948); assay: co-immunoprecipitation from extracts of SNU423, SW480 or MCF7 cells (IP anti-SMYD3, blot anti-VEGFR-1)
[3] = molecular target: endogenous VEGFR1 (human) (UniProt P17948); assay: co-immunoprecipitation from whole cell extracts of SNU423, SW480 and MCF7 cells (IP anti-SMYD3, blot anti-VEGFR-1)
HA-tagged VEGFR1 [4] = molecular target: T2, HA-tagged VEGFR1 (human, UniProt P17948 800-1338, limits assumed); assay: co-immunoprecipitation in HEK293 cells (anti-HA or anti-Flag IP, western blot)
T2 construct: also called HA-VEGFR1; cytoplasmic domain of VEGFR1; not shown: HA tag (pCMV-HA vector)
T2 sequence: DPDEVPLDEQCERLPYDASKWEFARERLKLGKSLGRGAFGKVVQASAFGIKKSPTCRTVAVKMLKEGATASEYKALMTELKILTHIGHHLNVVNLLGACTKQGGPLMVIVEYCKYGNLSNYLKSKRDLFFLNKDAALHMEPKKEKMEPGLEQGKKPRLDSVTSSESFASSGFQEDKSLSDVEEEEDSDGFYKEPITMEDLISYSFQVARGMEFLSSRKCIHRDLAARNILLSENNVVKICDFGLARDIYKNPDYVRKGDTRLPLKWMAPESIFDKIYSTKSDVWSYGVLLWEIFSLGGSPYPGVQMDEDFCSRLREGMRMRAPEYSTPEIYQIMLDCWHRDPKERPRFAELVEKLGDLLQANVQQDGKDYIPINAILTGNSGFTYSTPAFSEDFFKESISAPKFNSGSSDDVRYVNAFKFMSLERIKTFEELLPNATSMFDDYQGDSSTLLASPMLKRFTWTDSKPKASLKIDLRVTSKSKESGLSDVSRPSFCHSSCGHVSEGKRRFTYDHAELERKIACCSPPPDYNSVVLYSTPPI

HA-tagged VEGFR1 [5] = molecular target: T2, HA-tagged VEGFR1; assay: co-immunoprecipitation in HEK293 cells (anti-Flag or anti-HA IP, western blot anti-HA)

B4: Flag-tagged SMYD3-N20 (codons 20-428) (enzyme, not shown: small tags and cut ends)
chain: AVTPLRPGELLFRSDPLAYTVCKGSRGVVCDRCLLGKEKLMRCSQCRVAKYCSAKCQKKAWPDHKRECKCLKSCKPRYPPDSVRLLGRVVFKLMDGAPSESEKLYSFYDLESNINKLTEDKKEGLRQLVMTFQHFMREEIQDASQLPPAFDLFEAFAKVICNSFTICNAEMQEVGVGLYPSISLLNHSCDPNCSIVFNGPHLLLRAVRDIEVGEELTICYLDMLMTSEERRKQLRDQYCFECDCFRCQTQDKDADMLTGDEQVWKEVQESLKKIEELKAHWKWEQVLAMCQAIISSNSERLPDINIYQLKVLDCAMDACINLGLLEEALFYGTRTMEPYRIFFPGSHPVRGVQVMKVGKLQLHQGMFPQAMKNLRLAFDIMRVTHGREHSLIEDLILLLEECDANIRAS
binding (HA-tagged VEGFR1 [4]): binds

B5: Flag-tagged SMYD3-delta 2 (codons 100-428) (enzyme, not shown: small tags and cut ends)
chain: DSVRLLGRVVFKLMDGAPSESEKLYSFYDLESNINKLTEDKKEGLRQLVMTFQHFMREEIQDASQLPPAFDLFEAFAKVICNSFTICNAEMQEVGVGLYPSISLLNHSCDPNCSIVFNGPHLLLRAVRDIEVGEELTICYLDMLMTSEERRKQLRDQYCFECDCFRCQTQDKDADMLTGDEQVWKEVQESLKKIEELKAHWKWEQVLAMCQAIISSNSERLPDINIYQLKVLDCAMDACINLGLLEEALFYGTRTMEPYRIFFPGSHPVRGVQVMKVGKLQLHQGMFPQAMKNLRLAFDIMRVTHGREHSLIEDLILLLEECDANIRAS
binding (HA-tagged VEGFR1 [4]): binds

B6: Flag-tagged SET domain of SMYD3 (100-250) (enzyme, not shown: small tags and cut ends)
chain: DSVRLLGRVVFKLMDGAPSESEKLYSFYDLESNINKLTEDKKEGLRQLVMTFQHFMREEIQDASQLPPAFDLFEAFAKVICNSFTICNAEMQEVGVGLYPSISLLNHSCDPNCSIVFNGPHLLLRAVRDIEVGEELTICYLDMLMTSEERR
binding (HA-tagged VEGFR1 [5]): binds

Second part, the binder after the results:

binding [1]: binds
B1: HA-tagged SMYD3 (enzyme, not shown: small tags and cut ends)
chain: MEPLKVEKFATANRGNGLRAVTPLRPGELLFRSDPLAYTVCKGSRGVVCDRCLLGKEKLMRCSQCRVAKYCSAKCQKKAWPDHKRECKCLKSCKPRYPPDSVRLLGRVVFKLMDGAPSESEKLYSFYDLESNINKLTEDKKEGLRQLVMTFQHFMREEIQDASQLPPAFDLFEAFAKVICNSFTICNAEMQEVGVGLYPSISLLNHSCDPNCSIVFNGPHLLLRAVRDIEVGEELTICYLDMLMTSEERRKQLRDQYCFECDCFRCQTQDKDADMLTGDEQVWKEVQESLKKIEELKAHWKWEQVLAMCQAIISSNSERLPDINIYQLKVLDCAMDACINLGLLEEALFYGTRTMEPYRIFFPGSHPVRGVQVMKVGKLQLHQGMFPQAMKNLRLAFDIMRVTHGREHSLIEDLILLLEECDANIRAS

binding [2]: binds
binding [3]: binds
B2: endogenous SMYD3 (enzyme)
chain: B1 chain

binding (HA-tagged VEGFR1 [4]): binds
B3: Flag-tagged wild-type SMYD3 (p3XFLAG-CMV-SMYD3) (enzyme, not shown: small tags and cut ends)
chain: B1 chain
